No constants are given. Whether binding was seen depends on the method and setting. Some entries that bind do so weakly or less than the wild type.
Target: BMP6 (UniProt P22004)
Experiment: similar Biacore binding assay

Chains of the proteins cited; added tags and fusions are not shown. Lines headed by an entry give the natural chain unless they say otherwise; changes in a name come on top. Residues count along the entry.
UniProt P22004, residues 382-513: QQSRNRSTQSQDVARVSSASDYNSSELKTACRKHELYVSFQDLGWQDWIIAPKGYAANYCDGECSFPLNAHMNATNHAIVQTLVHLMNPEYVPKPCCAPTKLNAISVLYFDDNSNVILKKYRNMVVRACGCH
UniProt P27037: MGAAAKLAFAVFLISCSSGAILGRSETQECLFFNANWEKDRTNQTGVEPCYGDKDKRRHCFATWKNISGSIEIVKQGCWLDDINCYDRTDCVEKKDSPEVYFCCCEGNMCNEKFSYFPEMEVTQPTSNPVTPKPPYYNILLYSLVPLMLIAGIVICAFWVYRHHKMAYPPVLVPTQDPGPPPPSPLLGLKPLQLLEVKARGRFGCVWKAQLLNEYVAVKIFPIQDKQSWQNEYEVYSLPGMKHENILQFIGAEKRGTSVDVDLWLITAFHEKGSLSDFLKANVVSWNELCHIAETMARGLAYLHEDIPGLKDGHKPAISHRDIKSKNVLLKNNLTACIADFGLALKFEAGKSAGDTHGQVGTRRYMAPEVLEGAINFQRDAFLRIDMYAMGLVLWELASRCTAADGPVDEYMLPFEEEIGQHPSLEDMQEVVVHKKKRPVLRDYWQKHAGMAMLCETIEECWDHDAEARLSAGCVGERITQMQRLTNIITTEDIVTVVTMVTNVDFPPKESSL

ActRIIA-mFc (from UniProt P27037 21-135) (Fc fusion)
binding: binds

Reference: patent US20240299493A1 (ACCELERON PHARMA, published 2024)
